At least one compound was matched to its structure with a doubt left.
Experiment: In vivo testing for antiobesic activity
Conditions: rats

O=C(NN1CCCCC1)C1=NN(c2ccc(Cl)cc2Cl)C(c2ccc(Cl)cc2)C1 (stereo not drawn) [Example 1, N-piperidinyl-5-(4-chlorophenyl)-1-(2,4-dichlorophenyl)-4,5-dihydro-1H-pyrazole-3-carboxamide]
body weight after the treatment is ended (after end of 14 days treatment with 10 mg/kg intraperitoneally, Figure 1): this effect is also observed after the treatment is ended | body weight (intraperitoneally, 14 days, daily 10 mg/kg body weight, Figure 1): lowered | food intake (intraperitoneally, 14 days, daily 10 mg/kg body weight, Figure 2): reduction

Reference: EP1757589A1, “Amorphous phase of a substituted pyrazoline, its preparation and use as medicament” (LABORATORIOS DEL DR. ESTEVE, S.A., priority 2005, dated 2007)
